Data reported in patent publication US20200155555A1 (Endocyte, Inc., priority 2007, published 2020).

Assay: general procedure: Fmoc solid-phase peptide synthesis; H-Cys(4-methoxytrityl)-2-chlorotrityl-Resin (loading 0.56 mmol/g); Fmoc-AA-Wang resin; PyBOP, DIPEA
[1] = whole synthesis, scale 0.1 mmol

Substance	isolated mass [1]	isolated yield [1] [%]	conjugation yield (conjugation step, over 2 steps from everolimus) [% yield]
Tetra-Saccharoglutamate-Bis-tGlu-Folate Spacer EC0491	˜100 mg	51	
PEPTIDE1{[Pte].[gGlu].[SacGlu].E.[SacGlu].E.[SacGlu].C}|CHEM1{[EverolimusOCO2EtS]}$PEPTIDE1,CHEM1,8:R3-1:R1$$$V2.0			50

HELM strings list residues between dots; [ac] is acetyl, [am] amide, other brackets name non-standard units.
